Test results published in the supplement of paper PMC5949888.
± gives the standard deviation of the averaged measurements. Most values lie at the floor of the assay. Slopes are relative: functional sequences can read slightly below zero.

What follows are substances tested on Saccharomyces cerevisiae PS128 hsf1 delta, HSF1(1-493) fusion (assay: growth estimate (transactivation domain function in HSF1 fusion, heat-shock survival) (a.u. (slope of normalised read count over time)); higher = stronger growth at 37°C, i.e. more transactivation activity). Details: library: random library.

| Substance | growth estimate |
| --- | --- |
| LKGPYIGWPSKSLRSLIVRK | < -0.25 |
| AVRGCAVFLGPYE | < -0.25 |
| MSERSKRTVL | < -0.25 |
| WTQL | < -0.25 |
| QLQYTL | < -0.25 |
| WDDWASVIE | 0.892 |
| RSACCCEWRNIGKFPRCR | < -0.25 |
| QRIVNHRM | < -0.25 |
| QPSAGHDLLM | < -0.25 |
| KGIGSMHVQSVGRISKEVGI | < -0.25 |
| YVRWSEKLTPGAGDTRVAGM | < -0.25 |
| SLLIVEEHVCACSSHRNGMS | < -0.25 |
| VTGFNR | < -0.25 |
| PTICESSRCGCNLVRIGFLE | < -0.25 |
| IPSSVLRGACGPSKVFRFWW | < -0.25 |
| GWS | < -0.25 |
| ELNARGDRCAGHVLVI | -0.243 |
| RNYHFGVRCIVTGQ | < -0.253 |
| IVGRGDRVGLAGETIRITLG | < -0.25 |
| RGQATGPELHRGGKSTSKIP | < -0.25 |
| QSTSLH | -0.245 |
| RFHRQPARRIRCARP | < -0.25 |
| VCCVGAESGSFREYRVAARY | < -0.25 |

| Substance | growth estimate |
| --- | --- |
| GVLLYD | < -0.25 |
| TTIAGYSLGVTSLASQAMGG | < -0.25 |
| ESAASA | < -0.25 |
| EYGLLSGVVSSRSCRTS | < -0.25 |
| GPSLQS | < -0.25 |
| PSSC | < -0.25 |
| NAGV | < -0.25 |
| RCLIAFSR | < -0.25 |
| LGIHNGSWYAGRSSLKTVA | < -0.25 |
| GYLPLLEDPQATVFRSVLRT | < -0.253 |
| RDPLRPLGAMTRAALNVNRT | < -0.25 |
| VWVLHRIRAYCKTYNLG | < -0.25 |
| VNFRHAALRR | < -0.25 |
| IGSSGCSRKAFSYISHMTVL | -0.245 |
| FAFLKTG | < -0.25 |
| IEFVTMGIPFRGCASISHEH | < -0.25 |
| HKRR | < -0.25 |
| DTSCRRKH | < -0.25 |
| GTDLGGDSGVRALE | < -0.25 |
| PCGGGFKSSTVRASFRLTCL | < -0.25 |
| IPTSVASRIPTLGKQIRGLM | < -0.25 |
| RIPSARLR | < -0.25 |
| TGSSRRGPLDCSSIPPHPAG | < -0.25 |

Some values from the list.
Value for IEFVTMGIPFRGCASISHEH under growth estimate: < -0.25
Value for HKRR under growth estimate: < -0.25
Value for FAFLKTG under growth estimate: < -0.25
Value for NAGV under growth estimate: < -0.25
Value for IPTSVASRIPTLGKQIRGLM under growth estimate: < -0.25

Rewritten bar-delimited: part of the list above.
Substance | growth estimate
GTDLGGDSGVRALE | < -0.25
PCGGGFKSSTVRASFRLTCL | < -0.25

(next part)

| Substance | growth estimate |
| --- | --- |
| WRGNEVASRTVPLMGLLPRC | < -0.25 |
| VKPLLDFALMTNRSQTSAPG | < -0.25 |
| HPALALYY | < -0.25 |
| SPIG | < -0.25 |
| NIPWVYSQDPPISMHHSAII | < -0.25 |
| FRPCGHVNRVQPLPRND | < -0.25 |
| LGVHSQVGCERYLPGTRGLI | < -0.25 |
| ANVPSGDRL | < -0.25 |
| GSTNGAYMLSGCPPGSLKTR | < -0.25 |
| SLNRPCRTAQGGGISRTCRW | < -0.25 |
| EGIASVGMSSP | < -0.25 |
| GQLFDLRRPPRGQMAP | < -0.25 |
| LGAILRECNQF | < -0.25 |
| DTHTARRQRKDWESAGLSSI | < -0.25 |
| RQTLLSHNLISEEVGMTPMT | < -0.25 |
| VCMRIPMKKLVDFNKRHALV | -0.243 |
| LRSGRPVATGVLLISHHTSV | < -0.25 |
| QVMRSKRY | < -0.25 |
| RNHRLSGGV | < -0.25 |
| KQLICL | < -0.25 |
| PTNPMTRCPICSGGSSVLPR | < -0.25 |
| VIALR | < -0.25 |
| PIGRSGLRALPPRPRRSRQH | < -0.25 |

| Substance | growth estimate |
| --- | --- |
| PMVGTSTSIRPRCSLSRGDP | < -0.25 |
| QYLDQFEFRSGVIVLMHRDG | < -0.25 |
| PPPKKD | < -0.25 |
| WNI | < -0.25 |
| GEEFES | < -0.25 |
| GQEELVVCMCIFRSVAGRVC | < -0.25 |
| GGKWFRAEL | < -0.25 |
| IVPRRTPREPLRAPLKTADL | < -0.25 |
| PDGSTMCDAGAAGD | < -0.25 |
| AGVVDRDVVT | < -0.25 |
| NKES | < -0.25 |
| PRIRNDS | < -0.25 |
| GQMWYSIREPTFL | < -0.25 |
| LRSGWLLICLHSISGGIPRE | < -0.25 |
| RCQENWAAPLPLR | -0.245 |
| EPEVCVRE | < -0.25 |
| QTHPGGFTKLIQALTLCRSS | < -0.25 |
| VEEFR | < -0.25 |
| CHPRRMWIFSKV | < -0.25 |
| RLKLCRDRLGIRLIRPYPWE | < -0.25 |
| VMSGRGLVM | < -0.25 |
| HTCKWGWYRVFRFVLSSPVD | < -0.25 |
| FTG | < -0.25 |

| Substance | growth estimate |
| --- | --- |
| YEEGG | < -0.25 |
| LHQRYSGSGAHLVSPGLRGR | < -0.25 |
| GPDKAVRLRCAGPCNASKET | < -0.25 |
| GRASNPEDRHDATRTSASQR | < -0.25 |
| RPDKRPEFVSGAQ | < -0.25 |
| YRSLESPVRDSRRQSIIRVQ | < -0.25 |
| LSWEDTRALVFVGAQSPSPY | < -0.25 |
| NCSQLTACRSLPAVNLTAWR | < -0.25 |
| PLYINQGDCLIDNRTCSERS | < -0.25 |
| PSFAPNLIVD | -0.25 |
| GQSVSSNRGPGSVPWVTRLR | < -0.25 |
| LIPGLVALSLPGPGTSVSLS | < -0.25 |
| VPCSTTVHGRDLKMRRPSRV | < -0.25 |
| WPLDLRRY | < -0.25 |
| LASVQACCV | < -0.25 |
| SRFPMNDMIAILSCIAGCSC | < -0.25 |
| HDLGDRVVESKPLTHCGP | < -0.25 |
| GMCGKGHPVHWLALVIRGLL | < -0.25 |
| SLSQIQQCASANQNLRGD | -0.171 |
| DLYGSVSLHNLIMETLT | < -0.25 |
| GAN | < -0.25 |
| TGLILKCWGPTERIL | < -0.25 |
| DQRAKSSSRGTWSLAATPPR | < -0.25 |

| Substance | growth estimate |
| --- | --- |
| RDRGNEPALSVEEDGEQWYR | < -0.25 |
| LTN | < -0.25 |
| IESESECDGTRSGRMR | < -0.25 |
| SLKMI | < -0.25 |
| TFESVNPAFASTRVRRA | < -0.25 |
| CNPNTGGPVPSECPWLYWPT | < -0.25 |
| LDPCGIRSAPGHADMIQHSI | < -0.25 |
| RHSRP | < -0.25 |
| RPYLGGHYRDRAE | < -0.25 |
| LSSA | < -0.25 |
| NKVLAREVRGATPLTAGFIA | < -0.25 |
| NLTLKAEQWRVSE | < -0.25 |
| RSMLRLRSHVAPKVRPSHLG | < -0.25 |
| GLDFGYFWDWGRGVTKVRAG | < -0.25 |
| HRGGHSNWKFL | < -0.25 |
| TVNGRRMVASYG | < -0.25 |
| MVSPPFRGGFSGRSPLRTAY | < -0.25 |
| GLVLVVGMQKSGRKILVASA | < -0.25 |
| PVFDRKIWSRFNYIGEELSA | < -0.25 |
| KTDRRPFIRHGTLCDYAGPT | < -0.25 |
| SLTRVVRKILVAW | < -0.25 |
| LRADQLQANTRP | < -0.25 |
| CNESDVGISPIKRRDDDTQF | < -0.25 |

| Substance | growth estimate |
| --- | --- |
| TDGSPSGFANTVGVEGLVFS | < -0.25 |
| REIHLP | < -0.25 |
| LRTSARRQYGVELVIRY | < -0.25 |
| REIVYRRIGITRRPNIG | < -0.253 |
| TRRSPAGVRKRGPRTPGPLT | < -0.25 |
| SSVQGALAVCETLRCAKRVR | < -0.25 |
| SSDPP | < -0.25 |
| SGSARARAYVLNRAHRLPWA | 0.112 |
| PGEVPFYYIHGVREIGPYHH | < -0.25 |
| ARVYFKD | < -0.25 |
| CQVACVGSSYEGKYL | < -0.25 |
| RTCWMYARLTTDGLRSPTVA | < -0.25 |
| RFVKKRATDGVRLRQIQSSH | < -0.25 |
| DSVREPGPKIWSAKPPCSGS | < -0.25 |
| RSLEVVNLKPSNGLSPTSPR | < -0.25 |
| ISCYHLLRHLLKVAFSDNYR | < -0.25 |
| TAQ | -0.245 ± 0.0065 |
| GCLIILSLHDKVSGLRGFLT | < -0.25 |
| NEAHLPNPADSCGETAISRE | < -0.25 |
| SKSEGCARRDSRV | < -0.25 |
